# Structures can show the parent of a compound that is named as a salt. The campaign covered roughly 5,300 compounds. About 130 (2.5%) showed an effect of 50% or more. The list shows a part of the results. Peptide text beside a SMILES is read from it.
# System: M. mycetomatis strain mm55
# Details: primary screen, metabolic activity vs growth control; 96 h, 2 µM; inhibitor
row,Compound,% viability [%]
1,"NCCCS(=O)(=O)O [ONC0000618, tramiprosate]",89.13
2,"O=C(O)/C(Cc1ccccc1[N+](=O)[O-])=N/Nc1nc(-c2ccc(Cl)c(Cl)c2)cs1 [ONC0005147, 4egi1]",73.1
3,"OCCN1CCN(CC/C=C2/c3ccccc3Sc3ccc(Cl)cc32)CC1 [ONC0002933, zuclopenthixol]",62.33
4,"COc1ncc(-c2ccc3c(Nc4cc(Oc5cc(F)cc(F)c5)cc(C(=O)O)c4)c(S(=O)(=O)NC4CC4)cnc3c2)c(OC)n1 [ONC0003006, gsk2837808a]",114.3
5,"CN1c2ccccc2C(=O)N2CCc3c([nH]c4ccccc34)C21 (stereo not drawn) [ONC0004635, evodiamine isoevodiamine]",83.5
6,"Cc1c(S(=O)(=O)O)oc2c1C(=O)C(=O)c1c-2ccc2c1CCCC2(C)C [ONC0003377, sodiumtanshinoneiiasulfonate]",55.5
7,"O=C(Nc1ccc(CN2CCOCC2)cc1)c1ccc(-c2cccc(Cl)c2)o1 [ONC0004432, cid2011756]",129.3
8,"CN1CCC(=C2c3ccccc3CCn3c(C=O)cnc32)CC1 [ONC0001247, alcaftadine]",70.43
9,"O=C(c1c(O)nc2cc(Cl)ccc2c1O)C1CC1 [ONC0001535, l701252]",138.4
10,"CO/N=C(/C(=O)NC1C(=O)N2C(C(=O)O)=C(C[N+]3(C)CCCC3)CSC12)c1csc(N)n1 (stereo not drawn) [ONC0000506, cefepime hydrochloride]",66.95
11,"CN(C)CCOC(=O)C(c1ccccc1)C1(O)CCCC1 (stereo not drawn) [ONC0000325, cyclopentolate hydrochloride]",84.51
12,"CCc1cc(Cl)c(OC)c(C(=O)NC[C@@H]2CCCN2CC)c1O [ONC0001424, eticlopride]",68.41
13,"C[C@H](N[C@@H](CCc1ccccc1)C(=O)O)C(=O)N1Cc2ccccc2C[C@H]1C(=O)O [ONC0003902, quinaprilat]",69.09
14,"Nc1ccc(/N=N/c2ccccc2)c(N)n1 [ONC0000525, phenazopyridine hydrochloride]",72.77
15,"O=C(O)C(=O)c1cn(Cc2ccccc2)c2ccc(-c3ccc(OC(F)(F)F)cc3)cc12 [ONC0001812, tiplaxtinin]",83.56
16,"NS(=O)(=O)c1nn2cc(-c3ccccc3)nc2s1 [ONC0002993, aeg3482]",108
17,"C[C@]12CC[C@H](O)CC1=CC[C@@H]1[C@@H]2CC[C@]2(C)C(c3cccnc3)=CC[C@@H]12 [ONC0004582, abiraterone cb7598]",96.97
18,"COc1ccc(CCC(=O)c2c(O)cc(O[C@@H]3O[C@H](CO)[C@@H](O)[C@H](O)[C@H]3O[C@@H]3O[C@@H](C)[C@H](O)[C@@H](O)[C@H]3O)cc2O)cc1O [ONC0004619, neohesperidin dihydrochalcone nhdc]",85.5
19,"CC(C)(C)CC(C)(C)c1ccc(OCCOCC[N+](C)(C)Cc2ccccc2)cc1 [ONC0003268, benzethonium chloride]",86.04

# 4 compounds drawn at random from the list so far, as already listed:
row,Compound,% viability [%]
19,"CC(C)(C)CC(C)(C)c1ccc(OCCOCC[N+](C)(C)Cc2ccccc2)cc1 [ONC0003268, benzethonium chloride]",86.04
13,"C[C@H](N[C@@H](CCc1ccccc1)C(=O)O)C(=O)N1Cc2ccccc2C[C@H]1C(=O)O [ONC0003902, quinaprilat]",69.09
3,"OCCN1CCN(CC/C=C2/c3ccccc3Sc3ccc(Cl)cc32)CC1 [ONC0002933, zuclopenthixol]",62.33
17,"C[C@]12CC[C@H](O)CC1=CC[C@@H]1[C@@H]2CC[C@]2(C)C(c3cccnc3)=CC[C@@H]12 [ONC0004582, abiraterone cb7598]",96.97

# The list goes on.

row,Compound,% viability [%]
1,"CN1[C@@H]2CC[C@H]1C[C@@H](OC(=O)C(O)c1ccccc1)C2 (stereo partly drawn) [ONC0005193, homatropine bromide]",73.37
2,"Cn1nnc2c(C(N)=O)ncn2c1=O [ONC0004139, temozolomide]",66.38
3,"CCOC(=O)C(C)Oc1cccc2c(=O)n(CC(=O)Nc3ccc4c(c3)OCCO4)ccc12 (stereo not drawn) [ONC0002590, sid7969543]",95.64
4,"CC(C)(C)c1cc(C(C)(C)C)c2c(c1)C(O)(C(F)(F)F)C(=O)O2 (stereo not drawn) [ONC0001539, racbhff]",123.7
5,"O=[N+]([O-])c1cn2c(n1)OC[C@@H](OCc1ccc(OC(F)(F)F)cc1)C2 [ONC0004906, pa824]",123
6,"C=C1C(=O)O[C@H]2[C@H]1CC/C(C)=C/CC[C@@]1(C)O[C@@H]21 [ONC0001468, parthenolide]",67.75
7,"O=C(O)COc1ccc(C(=O)c2cccs2)c(Cl)c1Cl [ONC0005562, tienilicacid]",90.07
8,"CO[C@H]1C[C@H](O[C@H]2CC[C@@]3(C)[C@H](CC[C@@H]4[C@@H]3CC[C@]3(C)[C@@H](C5=CC(=O)OC5)[C@@H](OC(C)=O)C[C@]43O)C2)O[C@@H](C)[C@@H]1O [ONC0000896, oleandrin]",70.17
9,"COc1ccc(CCC(=O)Nc2nc3ccc(Cl)cc3s2)cc1OC [ONC0005171, ky02111]",58.49
10,"COc1ccc(-c2cc3nccn3c(Nc3ncccc3C(N)=O)n2)cc1OC [ONC0000957, bay 613606 dihydrochloride]",65.94
11,"CCCCOc1ccc(C(=O)CCN2CCCCC2)cc1 [ONC0001893, dyclonine hydrochloride]",83.01
12,"C(#CCN1CCCC1)CN1CCCC1 [ONC0002338, tremorine]",70.93
13,"C=C1CC[C@H](O)C/C1=C/C=C1\CCC[C@]2(C)[C@@H]([C@H](C)/C=C/[C@H](C)C(C)C)CC[C@@H]12 [ONC0000692, ergocalciferol]",131.4
14,"NC[C@H]1O[C@H](O[C@H]2C(O[C@@H]3O[C@H](CO)[C@@H](O)[C@H]3O)[C@@H](O)[C@H](N)C[C@@H]2N)[C@H](N)[C@@H](O)[C@@H]1O (stereo partly drawn) [ONC0002301, ribostamycin sulfate]",111.7
15,"Nc1nc(N)c2nc(-c3ccccc3)c(N)nc2n1 [ONC0003185, triamterene]",100.4
16,"OC(Cc1ccncc1)C(Cl)(Cl)Cl (stereo not drawn) [ONC0002727, petcm]",75.56
17,"CCCc1c(OCCCOc2ccc(OCC(=O)O)cc2)ccc(CC=O)c1O [ONC0000202, l165041]",106.2
18,"CS(=O)(=O)Nc1ccc(Cc2noc(-c3ccc4[nH]cc(CCN)c4c3)n2)cc1 [ONC0000195, l694247]",90.61
19,"Cc1ccc(C(=O)N(CCCN)[C@@H](c2oc3cc(Cl)ccc3c(=O)c2Cc2ccccc2)C(C)C)cc1 [ONC0000201, sb743921]",74.97

row,Compound,% viability [%]
1,"Cc1cccc(C)c1NC(=O)CN1CCCC1=O [ONC0004080, nefiracetam]",87.23
2,"CC(C)(C)NC(=O)[C@H]1CC[C@H]2[C@@H]3CC[C@H]4NC(=O)C=C[C@]4(C)[C@H]3CC[C@]12C [ONC0005580, finasteride]",64.51
3,"Cc1ccc(C(=O)Cn2c3c(sc2=N)CCCC3)cc1 [ONC0000087, pifithrinalpha]",88.89
4,"C=CC[N+]1([C@H]2C[C@H]3[C@@H]4CC[C@H]5C[C@H](O)[C@@H](N6CCOCC6)C[C@]5(C)[C@H]4CC[C@]3(C)[C@H]2OC(C)=O)CCCC1 [ONC0002413, rocuronium bromide]",103.6
5,"C[C@H](O)[C@H](O)[C@H]1CNc2nc(N)[nH]c(=O)c2N1 [ONC0003252, sapropterin]",92.95
6,"O=c1ccn([C@@H]2O[C@H](COP(=O)(O)OP(=O)(O)OP(=O)(O)O)C(O)C2O)c(=O)[nH]1 (stereo partly drawn) [ONC0002020, uridine5triphosphate3na]",73.27
7,"Nc1nc2c(sc(=O)n2[C@@H]2O[C@H](CO)[C@@H](O)[C@H]2O)c(=O)[nH]1 [ONC0002890, 5amino3dribofuranosylthiazolo45dpyrimidin273h6hdione 7thia8oxoguanosine]",143.9
8,"CCN1CCN(c2ccc(C(C)(C)NC(=O)c3cc4[nH]c5ccccc5c(=O)c4cc3F)cn2)CC1 [ONC0002677, bms566419]",74.64
9,"CC(C)C(=O)c1c(C(C)C)nn2ccccc12 [ONC0001478, ibudilast]",65.78
10,"CCS(=O)(=O)N1CCN(c2ccc(Nc3ncc(C(N)=O)c(NC4CC4)n3)cc2)CC1 [ONC0001809, cerdulatinib]",122.7
11,"Cc1ccc(C)c(C(O)CNC(C)C)c1 (stereo not drawn) [ONC0003752, benzenemethanol25dimethyl1methylethylaminomethyl]",83.44
12,"FC(F)(F)c1ccccc1-c1cc(C(F)(F)F)c2[nH]c(C3=NOC4(CCCCC4)C3)nc2c1 [ONC0003118, tci2014]",71.9
13,"CC(C)CC(NC(=O)C1CCCN1)C(=O)NCC(N)=O (stereo not drawn) [ONC0002964, prolylleucylglycinamide] (H-Pro-Leu-Gly-NH2; configuration not given here)",144.3
14,"Cn1c(N2CCCCS2(=O)=O)nc(C(=O)NCc2ccc(F)cc2)c(O)c1=O [ONC0004672, bms707035]",106
15,"CC(CN(C)C)CN1c2ccccc2CCc2ccccc21 (stereo not drawn) [ONC0002854, trimipramine maleate]",124.6
16,"CCCC(O)C(CC)CO (stereo not drawn) [ONC0003288, 2ethyl13hexanediol]",96.38
17,"O=C(/C=C/c1ccc(O)c2c1[C@@H](C(=O)O[C@H](Cc1ccc(O)c(O)c1)C(=O)O)[C@H](c1ccc(O)c(O)c1)O2)O[C@H](Cc1ccc(O)c(O)c1)C(=O)O [ONC0000334, salvianolic acid b]",78.81
18,"OC(CCN1CCCC1)(c1ccccc1)C1CCCCC1 (stereo not drawn) [ONC0000469, procyclidine hydrochloride]",74.91
19,"C[C@]12CCC(=O)C=C1C=C[C@@H]1[C@@H]2CC[C@@]2(C)[C@H]1CC[C@@]2(O)CCC(=O)O [ONC0003183, canrenoic acid potassium salt]",87.76

# — PMC12670160, “A drug-repurposing screen of FDA- and EMA-approved drugs identifies two NF-κB inhibitors active against eumycetoma” (Journal of Antimicrobial Chemotherapy, 2025)
